The values below come from PMC11750091.

Results are given in words; binding and its absence hold for the method and conditions named. Binding seen in cells or lysates may run through a third protein. Here binding means that the protein was enriched with, or labelled near, the bait; the list need not be complete. Where a sequence is shown, tags or fusion partners need not be part of it.

Experiment [1] deals with T1, PoFbx23 fused with the TAP tag (FLAG-HA) (Penicillium oxalicum) (UniProt S7ZS07).
T1 sequence: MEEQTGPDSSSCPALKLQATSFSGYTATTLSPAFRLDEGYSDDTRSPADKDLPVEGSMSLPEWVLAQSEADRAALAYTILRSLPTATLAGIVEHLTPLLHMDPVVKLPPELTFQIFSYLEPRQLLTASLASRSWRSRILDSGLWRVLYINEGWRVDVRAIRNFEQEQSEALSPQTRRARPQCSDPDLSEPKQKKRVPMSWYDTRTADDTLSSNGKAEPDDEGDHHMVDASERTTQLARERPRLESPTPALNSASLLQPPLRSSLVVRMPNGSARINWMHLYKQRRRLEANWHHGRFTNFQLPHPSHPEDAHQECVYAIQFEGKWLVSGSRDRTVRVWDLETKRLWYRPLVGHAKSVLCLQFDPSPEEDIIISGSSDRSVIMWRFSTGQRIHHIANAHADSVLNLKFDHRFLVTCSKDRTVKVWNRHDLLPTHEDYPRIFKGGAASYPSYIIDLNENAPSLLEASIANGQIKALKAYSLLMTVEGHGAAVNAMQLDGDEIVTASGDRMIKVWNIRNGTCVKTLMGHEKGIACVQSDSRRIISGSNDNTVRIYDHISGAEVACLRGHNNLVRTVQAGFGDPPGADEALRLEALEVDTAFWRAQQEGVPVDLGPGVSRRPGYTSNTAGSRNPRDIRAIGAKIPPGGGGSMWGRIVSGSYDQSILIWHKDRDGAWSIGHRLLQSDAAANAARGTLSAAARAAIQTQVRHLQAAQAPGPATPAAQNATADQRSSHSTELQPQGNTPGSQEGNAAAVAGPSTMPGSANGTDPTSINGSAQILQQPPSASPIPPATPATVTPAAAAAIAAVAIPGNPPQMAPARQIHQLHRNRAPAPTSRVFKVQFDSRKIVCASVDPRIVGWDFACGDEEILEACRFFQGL
The experiment is described as follows: affinity purification with mass spectrometry; TAP-MS with PoFbx23-HA-FLAG as bait; two-step tandem purification, LC-MS/MS; WT with native PoFbx23 as control; two Fbx23-TAP samples.

Experiment [2] addresses T2, PoAce1 fused with the TAP tag (HA-FLAG) at the C-terminus (Penicillium oxalicum) (UniProt S8AYJ0).
T2 sequence: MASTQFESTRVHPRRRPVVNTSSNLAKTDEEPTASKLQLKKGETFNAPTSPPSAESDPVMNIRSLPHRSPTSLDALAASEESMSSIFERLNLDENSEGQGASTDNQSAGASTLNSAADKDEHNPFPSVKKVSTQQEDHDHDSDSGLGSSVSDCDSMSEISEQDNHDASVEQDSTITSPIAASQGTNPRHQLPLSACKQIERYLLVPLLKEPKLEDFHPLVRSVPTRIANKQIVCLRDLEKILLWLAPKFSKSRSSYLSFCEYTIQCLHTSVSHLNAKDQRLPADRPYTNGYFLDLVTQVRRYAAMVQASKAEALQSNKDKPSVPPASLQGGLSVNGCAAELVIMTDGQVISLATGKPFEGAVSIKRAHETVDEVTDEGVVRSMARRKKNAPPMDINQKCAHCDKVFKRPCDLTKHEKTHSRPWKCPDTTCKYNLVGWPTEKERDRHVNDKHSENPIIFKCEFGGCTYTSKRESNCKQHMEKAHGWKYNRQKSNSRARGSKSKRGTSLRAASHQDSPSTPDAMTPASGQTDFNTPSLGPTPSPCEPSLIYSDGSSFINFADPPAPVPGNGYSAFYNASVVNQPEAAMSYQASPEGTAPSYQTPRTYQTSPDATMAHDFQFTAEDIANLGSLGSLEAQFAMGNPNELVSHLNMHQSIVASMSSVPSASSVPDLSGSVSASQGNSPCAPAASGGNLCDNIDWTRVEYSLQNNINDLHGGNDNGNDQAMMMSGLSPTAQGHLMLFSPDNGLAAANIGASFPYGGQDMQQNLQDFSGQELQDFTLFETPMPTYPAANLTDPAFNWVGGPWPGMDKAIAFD
Briefly: affinity purification with mass spectrometry; TAP-MS with PoAce1-HA-FLAG as bait from mycelia grown in VMMG; anti-FLAG M2 gel, 3xFLAG peptide elution, then anti-HA resin, 8 M urea elution; LC-MS/MS; WT 114-2 as control; biological triplicates.

B1: PDE_04678 (Zn2Cys6 class fungal-specific transcription factor) (protein, UniProt S8AUB2 1-766)
chain: MTTPSPQRPAAPSPSEPPKKRAKYTQIACNECKRRKIKCTGGSPCSRCSRGKVFCSYPSDRTPIHETEFKDARVGSRFESIDQQLEEMQREMRTMSARLRQLEASSPNSIMPAKTNTQKELNRILNAPKSPTYVGPTSVEFGLRHNQPSSRLLASAHDRDESETAPLSNSTERSPGPLPTGPNSSSRAHLGFEEALRLLQVYEDLVGAMYPCVDMDSVRVYVQDYYGSHESITTSVADCQGSTPADQDWFFARDIQVLKLLLATALLAESHGRSELAAALADNVEDRFAARYKVAEVDMKEILIMTLLSIFHSYRDDEVISWRLIRNATSACMELGLHRQETWHRNGGVFPGELAWTWANRLFWCIYVLDRKWSFGSGLPFGMQDTDIDTDIPEPGESTPYLNCLISHARLSTKIWGLIMEWPRYSPSTTAIKCTELDDEVQQWIWSIPHELRFLPNLSFDSHVPTDRSRHSDRLMMLQVLLALQGNQLRILVYRQNLQSKERIAGDLAGASIAVETAKSTIHMLEYFSSVTNIYFDRPEPFNYFLISALAALLLAVLHAPSRFSHVCRPEFYTAINLVRRSATRARTSRRLQKLLRRLEQIQLHKGGDDHQAVTQSRSKDFVSRNSNGCTVEQRPSGPVAVTGLSAPHGSWEPTPESARTSTSVEHPTSNYERPMTSWNTSSGMDNDCSNVCENLSSFFKNAGDLLFDIDPTTSMELPSSSDASLARGVDVGFFSVPVNLQSPSQAFANFEDDNEELTRAMAGLL
Regarding B1, the binding entry in experiment [1] and in experiment [2] was “binds” throughout.

B2: PDE_09448 (Zn2Cys6 class fungal-specific transcription factor) (protein, UniProt S7ZVN6 1-924)
chain: MSGYHAGPFGHSGDNPYQLPPPRTPANLQYGPDPFLRQRDSERSDLVREAVPADAASVRQPNEPLPSVRSLLTPTTGPGSPPAFRQPRYGIQTPAESHRDMGYPFRPQETVFPPLQMGTLDRRRSESLPHSQPTSLPPLSHVAMGGSAEVDHHHHTTRSDPSTAKSSHAHLSPRNNSHSELMPSAEISSPESVTRANAPAVLPHVVDERYIDGELCFVYADGSHQPKIVDGKPVNPNWGVTKAGKPRKRLAQACLTCREKKIKCQPNRPKCDQCQKSGRECRFENALRGNRPRGSHSVGPSGNATSEIIGAVYDITRASDSGASLPGSGHSPISESVGLTPSGIEITHDPMLDAERAYRQRAYRIPRPFEEDSHIRHTTYPETNRLPEYQEILGEMRDTGPDDPLLASWNVDPFDHDPEMTLHYVDTFFTYVNDGLYHIFPHARFILWLKSCNTKSQEDKMVLYSMMALGSIFSDRPDKVSALRRYSRIARFAIQRSQHNLCLQLVQSHLLMGLLYYAAGSLVAAWDAVGSAGRAVSGLRFNIESGGVIVGQNQPCEYGLHPQALIECRRRTFWVAFILDRISSLFSVPSTTIPSESALIRLPCREDIYEAQQYATAPYFQNILNQASRFSEDDRHSLSPMAFVIQILSIWGDVSFQTLRLSHAPTECWLQLAEDFHTEIIQRTDDWINQLPEHLTFSVANMERASQAKKVDAFVGIHMFYHATLMKLYRHARYQSLRPEALARHIHRARYHAVEILRIALAVVQYAHDVQASRSTSDSSSAHGTLLGPFLAHVVVSAVDVLSAGGMVTELPDCISFTNGAYGMVQLLGHHWESSICLANLIKKRLDAMIDCANDRSRNQEKICFAVDGPSLETRIPTGTPSPPQGTLDEDLFYGALPRDVLLKAMRGDDTLSADKNIAWFNDQ
As to B2, in experiment [1], the binding result is on record as “binds”.

B3: PDE_04990 (Zn2Cys6 class fungal-specific transcription factor) (protein, UniProt S7ZH90 1-734)
chain: MREKLVLEKSRVPRLRPRDSSRKVGLPRVDRTLEIHGTHIKKTIRDIRLDTKSLARLADTLDRDGDGARVTTSDTSTEIQGLVEMGDETCTMDPVDDQTTHYSGEFSYWNFSMRLKQQIEQMGGLESQSHDSDRAWDFPRAHQLRPVGSHLSAAMSCSPPRPVGEFLARVFFKYVETHYYFIEKTWFIDKMNLLYEDPSRFATKGGEVIISILLTVFAIGSQYAHLESTASGLRDQQEQSFSEEDIGATFYQQAIRLLPEIIELSSLESVQACLLFGYYALPVDTSGLGYVYVNLAIRLGMQNGMHRKCATGAFNATMVETRNRVWWTAYLLERKISIFHGRPLSVLQKDVDASLPVFREGMESEDSRTSVARAEASVQLIHYLEQLFTDVNALRGCQRNQIPKIIAHILASKEALKTWWDSLPKNLTSSALQPLPQLRSAMHFQLEHCLVRMFIGRPFLLRQESSDSTNTSPAESVITSGDKRHSSNRTRLSHKDLIDDCIESATEALGILQGLRDNTGLARASYVEYSSCRASLLVLIAYSIQQFSERYRNLLYKGLDMIREMSAAGESARSEVFLIETLERALARLHARIQRAEQGDSSQPEPSPSDYEAFKHWGAMMRDGVISTDTDSDRAPVSLGSAGSAGPLPEHSRVINQSFDQPWAFNPSQNTLSVSDQDMGMLCALDPLIDIPFFGAENSSPSAAWPMWTEAQVLEQFLSGSRLDSISEAQASHN
As to B3, the binding result in experiment [1] is listed as “binds”.

B4: PDE_05998 (uncharacterized protein) (protein, UniProt S7ZL42 1-846)
chain: MELSRQVLSTGWSFRDRDGEEWMPVKAVPSVVQQDLMNNNKLDDPFIGFNELKARWVNEKSWVYRNTFKRPQVPEGCSIDLVFDGLDTFATVKLDGNVILQSDNMFLGHRVNVTEALEAEGDHVLEIEFDCALQRAREIKAEHPDHVWVGFNGDTSRLAVRKAQYHWGWDWGPVLMTAGIWRPIVLEVYTARVVDLWAQTQLAADHQSAGITAVAKFDNASGGDFTARFSLSLNGNEIAAEEVPVSSENQAKMTVKVDNPKLWWPHGYGEQTLYKISVSLRRGNTQVAESSKNFGIRTAEVIQQPDKHGKSFYFRINGMDIFCGGSCWIPTDSLLTNVSADRYRKWIQLMVEGRQIMIRVWGGGIYEDAAFYEACDELGVLVWQDFMFGCGNYPTWPSLLESIREEAIYNVQRLRHHPSIVIWVGNNEDYQVQESEGLTYNYEDKDPESWLKTNFPARYIYEKLLPEVVAENSPSTFYHPGSPWGDGKKSSDTTVGDMHQWNVWHGTQEKYQIFDTLGGRFNSEFGMEAFPHLSTIEYFVEDPKDLFPQSHVIDFHNKADGHERRLATYLVENLRTATDLETYIYLTQVVQAETMMFGYRGWRRQWGDERHCGGALLWQLNDCWPTISWAIADYFLNPKPAYYAVKRVLNPIAVGVRREHHDWSVAHAQPPRTSKYELWVSSNNPEAVRGSIELRFLSVNTGRDIRTPILREDIVLTANGTTNIITDGLLDHIAEPEPHVLAARLWVDHKVVARDVDWPQPFKYLNLSDRGLEVQLKRSSPEKATLIVNSRKPVKCLVIEEQEGVRISDNAIDIVPGDEQVIEVTGLGDKSLKFRYLGQECVELVQ
As for B4, in experiment [2], the binding entry is given as “binds”.

B5: E3 ubiquitin-protein ligase Bre1 homolog (PDE_03581) (protein, UniProt S7ZDA7 1-705)
chain: MEDRKRPAADSNESAPPSKKQATTVNGTSKPHPDADMPWRDDLERFQKDAILRQMQEYKREKAGLESQLNRMSKAAAHHDDHLRAIDAWFRQLVDEVKILLGTSHEQTKEMTFKSSLQFEDVSEFEAHLKARSDDIREIISLFQSKMDSLSPDVTSLQNELAKKLAEEKITIAKLEQTIAEKQQLEESLEAASLRYMVAEKKLDRARSLTVAKLEKQYLLGGKRPGSEGAGARRDEGSPANGGPSGSERNAELEDSYNKLNVVSEKQKEQLQKLEAENANLLSQITDIKVKSSKFTDDDYAHTDLFKQLRSQHDDVVKRINHLEATNTQLREEAEKYRSERNAYKLQLEEESNAAIAEKEAALMRAETDLARIRNARDELFADQQIRKTTQDQEKLTGAKLQELADAREARIAALESEVERLRVQTGESKTNSDIDKIPVEELRTKYASLERQYSMLNTELSSMQTAYKKFSTLASQKVTDFKALEDKVARLAAEKSKADQKYFAAMKSKEARDAEVRTLRMQNSKTSDIVSQLKESEAATRSLLANMDKQVNEMKEALNSASEKQRTSQQQLTESNIVVEGLKSQVTELKNLSTSKDATLSSTSAALRQAETEIVGLKQSLADTKKSLDNWKNKSLGNNSSEYEMLRTLALCTVCRRNFKNTVIKTCGHVFCKDCVEERLTSRSRKCPNCNRSFGSNDHMHITL
On to B5, for which the binding result in experiment [1] is listed as “binds”.
